Some of the results follow. Some of these compounds have results that are not shown, active ones among them.
Assay: anaerobic choline-dependent bacterial growth inhibition – minimal medium, absorbance (AID 1963822)
Conditions: Gram-negative bacterium anaerobic choline minimal medium, measured here: choline growth z-score, timepoint 1, stronger effect = lower value

Compound	z-score
Cc1ccc2oc(C(=O)NCC3(N(C)C)CCCCC3)c(C)c2c1	0.46
Cc1cc(C)c2c(C)c(C(=O)NCC3(N(C)C)CCCCC3)oc2c1	-0.94
Cc1c(C(=O)NCC2(N(C)C)CCCCC2)oc2ccccc12	0.28
Cc1cc2oc(C(=O)NCC3(N(C)C)CCCCC3)c(C)c2cc1Cl	0.44
Cc1c(C(=O)NCC2(N(C)C)CCCCC2)oc2ccc(F)cc12	-0.88
Cc1ccc2c(C)c(C(=O)NCC3(N(C)C)CCCCC3)oc2c1	0.95
Cc1ccc2c(Cl)c(C(=O)NCC3(N(C)C)CCCCC3)sc2c1	-0.86

Reference: PubChem BioAssay AID1963822 (ICCB-Longwood Screening Facility, Harvard Medical School, 2024)
